Experimental findings from US4125501A, “Phosphites of sugar alcohols and polymers stabilized therewith” (Hoechst Aktiengesellschaft, priority 1976, dated 1978) are described below.

This series can be described thus: stability to light in polypropylene (Xenotest). Particulars: Xenotest 150, 0.20 part phosphite per 100 parts polypropylene.

“Tri-(β-hydroxy-triacontyl)-sorbityl-triphosphite [Example 1]”: the “exposure time until elongation at break dropped to 10% of the initial value” is 578 h.
